# Test results taken from the supplement of paper PMC4604168 (melanoma cell lines).
# Some of the results follow. Repeats are few or missing, and single values can be far off.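 Cells were imaged in 1,536-well plates, and nuclei stained with an antibody against cleaved PARP were counted against all DNA-stained nuclei to give the apoptosis fraction. Screening doses were chosen to leave most cells alive, and resting and induced cleaved-PARP levels differ strongly between cell lines.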
# Tests used:
# Experiment in all cases: cleaved PARP positive nuclei fraction relative to DMSO control; melanoma cells; higher = more apoptosis
# Conditions in all cases: library dose: low library concentration; 72 h
# MZ2-MEL = tested on: MZ2-MEL
# MeWo = tested on: MeWo
# RPMI7951 = tested on: RPMI7951
# RVH-421 = tested on: RVH-421
# SkMel28 = tested on: SkMel28
# SkMel2 = tested on: SkMel2
# SkMel30 = tested on: SkMel30
# SkMel5 = tested on: SkMel5
# UACC257 = tested on: UACC257
# UACC62 = tested on: UACC62
# WM115 = tested on: WM115
# WM1716 = tested on: WM1716
# WM1745 = tested on: WM1745
# WM3526 = tested on: WM3526
# WM3619 = tested on: WM3619
# WM451Lu = tested on: WM451Lu
SMILES,cleaved PARP positive nuclei fraction (MZ2-MEL) [%],cleaved PARP positive nuclei fraction (MeWo) [%],cleaved PARP positive nuclei fraction (RPMI7951) [%],cleaved PARP positive nuclei fraction (RVH-421) [%],cleaved PARP positive nuclei fraction (SkMel28) [%],cleaved PARP positive nuclei fraction (SkMel2) [%],cleaved PARP positive nuclei fraction (SkMel30) [%],cleaved PARP positive nuclei fraction (SkMel5) [%],cleaved PARP positive nuclei fraction (UACC257) [%],cleaved PARP positive nuclei fraction (UACC62) [%],cleaved PARP positive nuclei fraction (WM115) [%],cleaved PARP positive nuclei fraction (WM1716) [%],cleaved PARP positive nuclei fraction (WM1745) [%],cleaved PARP positive nuclei fraction (WM3526) [%],cleaved PARP positive nuclei fraction (WM3619) [%],cleaved PARP positive nuclei fraction (WM451Lu) [%]
"Cn1c(=O)n(-c2ccc(C(C)(C)C#N)cc2)c2c3cc(-c4cnc5ccccc5c4)ccc3ncc21 + CO[C@@H]1[C@H](N(C)C(=O)c2ccccc2)C[C@H]2O[C@]1(C)n1c3ccccc3c3c4c(c5c6ccccc6n2c5c31)C(=O)NC4 [Midostaurin] (first compound 0.004 µM, partner dose 0.08 µM)",67.1,50.2,115,107,42.7,69.4,73.5,65.4,42,138,133,137,112,66.5,132,158
"Cn1c(=O)n(-c2ccc(C(C)(C)C#N)cc2)c2c3cc(-c4cnc5ccccc5c4)ccc3ncc21 + Cc1cc([N+](=O)[O-])ccc1NS(=O)(=O)c1cc(Cl)ccc1Cl [FH535] (first compound 0.004 µM, partner dose 1 µM)",69.2,32,71.1,233,397,146,94.8,88.9,222,145,134,176,83.7,187,115,236
"CN1CCN(c2ccc3nc(-c4c(N)c5c(F)cccc5[nH]c4=O)[nH]c3c2)CC1 [Dovitinib] + COc1cc(Nc2ncc(F)c(Nc3ccc4c(n3)NC(=O)C(C)(C)O4)n2)cc(OC)c1OC [Tamatinib] (first compound 0.1 µM, partner dose 0.4 µM)",254,80.7,102,82.4,138,74.9,170,96.9,115,120,84.3,67.4,139,63.4,103,45.9
"Cc1cc(Nc2cc(N3CCN(C)CC3)nc(/C=C/c3ccccc3)n2)n[nH]1 + CC(C)(C)c1cnc(CSc2cnc(NC(=O)C3CCNCC3)s2)o1 [SNS-032] (first compound 0.04 µM, partner dose 0.01 µM)",142,44.6,22.9,114,125,68.6,58.4,83.9,255,198,64.5,183,102,166,118,32.8
"Nc1nc(F)nc2c1ncn2[C@@H]1O[C@H](CO)[C@@H](O)[C@@H]1O [fludarabine] + Oc1cc(-c2nc(-c3ccccc3)[nH]c2-c2ccncc2)ccc1Cl [L779450] (first compound 0.2 µM, partner dose 0.2 µM)",74.6,991,96,169,34.6,1110,561,434,145,97.1,119,22.8,92.1,514,112,771
"O=C(O)c1ccc2c(c1)nc(Nc1cccc(Cl)c1)c1ccncc12 + O=S(=O)(c1ccccc1)N(CC(F)(F)F)c1ccc(C(O)(C(F)(F)F)C(F)(F)F)cc1 [T0901317] (first compound 0.4 µM, partner dose 1.4 µM)",151,34.5,69.2,28.4,142,70.9,114,151,139,378,336,385,98.1,233,93.7,78.3
"C[C@@H](Oc1cc(-c2cnn(C3CCNCC3)c2)cnc1N)c1c(Cl)ccc(F)c1Cl [Crizotinib] + COc1cc(N2CCC(N3CCN(C)CC3)CC2)ccc1Nc1ncc(Cl)c(Nc2ccccc2S(=O)(=O)C(C)C)n1 [NVP-TAE684] (first compound 0.2 µM, partner dose 0.08 µM)",79.7,179,36.7,231,204,71.6,67.4,93.7,220,89.7,79.6,42.1,99.3,53.3,66,112
"CC(C)C[C@H](NC(=O)[C@H](Cc1ccccc1)NC(=O)c1cnccn1)B(O)O [Bortezomib] + Cc1ccc(NC(=O)c2cccc(N(C)C)c2)cc1NC(=O)c1ccc(O)cc1 [ZM336372] (first compound 0.001 µM, partner dose 2 µM)",538,77.9,64.9,347,35.1,71.7,68.5,156,229,92.1,205,1080,177,135,670,118
